# The list shows a part of the results.
# Amino acid sequences for entries named in this document (tags omitted). A change or cut given only in a name is not applied to a line headed by its entry.
# UniProt Q92766: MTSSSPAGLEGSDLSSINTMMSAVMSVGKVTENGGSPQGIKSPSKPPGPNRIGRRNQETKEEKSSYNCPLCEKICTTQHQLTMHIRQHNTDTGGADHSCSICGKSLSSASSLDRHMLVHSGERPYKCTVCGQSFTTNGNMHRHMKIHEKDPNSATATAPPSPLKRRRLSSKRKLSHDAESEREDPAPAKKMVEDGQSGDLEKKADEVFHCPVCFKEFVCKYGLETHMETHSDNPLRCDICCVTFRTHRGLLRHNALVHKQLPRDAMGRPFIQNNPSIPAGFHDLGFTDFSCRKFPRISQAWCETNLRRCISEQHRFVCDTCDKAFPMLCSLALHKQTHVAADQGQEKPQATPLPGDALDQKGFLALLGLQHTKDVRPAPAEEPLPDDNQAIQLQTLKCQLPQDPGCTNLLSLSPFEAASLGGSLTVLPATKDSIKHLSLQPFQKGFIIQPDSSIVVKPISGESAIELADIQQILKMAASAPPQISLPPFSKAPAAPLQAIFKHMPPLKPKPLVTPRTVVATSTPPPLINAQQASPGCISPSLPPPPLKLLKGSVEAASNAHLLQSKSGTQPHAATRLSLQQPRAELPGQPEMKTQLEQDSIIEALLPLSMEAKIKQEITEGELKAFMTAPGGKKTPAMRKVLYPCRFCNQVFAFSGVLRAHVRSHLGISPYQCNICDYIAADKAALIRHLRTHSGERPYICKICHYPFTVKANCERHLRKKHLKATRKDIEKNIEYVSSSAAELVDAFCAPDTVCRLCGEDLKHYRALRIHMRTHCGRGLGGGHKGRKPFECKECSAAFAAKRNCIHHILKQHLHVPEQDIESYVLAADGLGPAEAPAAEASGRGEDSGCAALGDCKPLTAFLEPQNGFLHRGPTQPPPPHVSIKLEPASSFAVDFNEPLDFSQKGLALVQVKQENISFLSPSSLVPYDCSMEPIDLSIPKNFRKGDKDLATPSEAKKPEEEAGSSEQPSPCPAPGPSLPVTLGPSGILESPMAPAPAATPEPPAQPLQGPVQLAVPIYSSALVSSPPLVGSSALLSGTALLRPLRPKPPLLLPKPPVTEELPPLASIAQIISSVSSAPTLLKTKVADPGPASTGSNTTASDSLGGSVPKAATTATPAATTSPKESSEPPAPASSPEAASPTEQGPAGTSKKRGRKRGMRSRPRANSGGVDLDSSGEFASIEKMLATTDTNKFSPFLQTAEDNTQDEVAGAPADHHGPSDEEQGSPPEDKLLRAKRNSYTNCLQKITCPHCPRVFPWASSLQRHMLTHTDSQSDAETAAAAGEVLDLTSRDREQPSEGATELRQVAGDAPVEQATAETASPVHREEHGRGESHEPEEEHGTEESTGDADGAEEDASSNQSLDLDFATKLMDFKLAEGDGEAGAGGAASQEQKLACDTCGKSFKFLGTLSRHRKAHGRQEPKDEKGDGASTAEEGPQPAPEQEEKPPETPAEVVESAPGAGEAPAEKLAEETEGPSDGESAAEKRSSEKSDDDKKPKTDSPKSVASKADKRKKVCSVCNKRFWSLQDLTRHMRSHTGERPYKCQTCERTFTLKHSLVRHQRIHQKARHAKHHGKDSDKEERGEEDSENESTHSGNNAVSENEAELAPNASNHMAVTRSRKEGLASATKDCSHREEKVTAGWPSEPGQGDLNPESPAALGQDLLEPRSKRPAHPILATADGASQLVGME
# UniProt P19793: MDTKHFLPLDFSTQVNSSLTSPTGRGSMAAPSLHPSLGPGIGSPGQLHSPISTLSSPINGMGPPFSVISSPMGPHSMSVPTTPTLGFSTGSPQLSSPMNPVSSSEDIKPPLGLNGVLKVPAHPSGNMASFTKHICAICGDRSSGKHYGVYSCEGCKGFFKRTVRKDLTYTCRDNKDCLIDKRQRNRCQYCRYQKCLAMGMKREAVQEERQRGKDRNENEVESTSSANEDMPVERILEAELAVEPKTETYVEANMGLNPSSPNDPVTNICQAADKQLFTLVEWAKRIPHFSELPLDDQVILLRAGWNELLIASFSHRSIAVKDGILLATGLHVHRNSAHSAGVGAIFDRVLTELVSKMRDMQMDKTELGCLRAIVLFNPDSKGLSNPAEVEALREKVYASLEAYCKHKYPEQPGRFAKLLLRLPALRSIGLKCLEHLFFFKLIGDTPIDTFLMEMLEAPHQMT
# UniProt Q9UBE0: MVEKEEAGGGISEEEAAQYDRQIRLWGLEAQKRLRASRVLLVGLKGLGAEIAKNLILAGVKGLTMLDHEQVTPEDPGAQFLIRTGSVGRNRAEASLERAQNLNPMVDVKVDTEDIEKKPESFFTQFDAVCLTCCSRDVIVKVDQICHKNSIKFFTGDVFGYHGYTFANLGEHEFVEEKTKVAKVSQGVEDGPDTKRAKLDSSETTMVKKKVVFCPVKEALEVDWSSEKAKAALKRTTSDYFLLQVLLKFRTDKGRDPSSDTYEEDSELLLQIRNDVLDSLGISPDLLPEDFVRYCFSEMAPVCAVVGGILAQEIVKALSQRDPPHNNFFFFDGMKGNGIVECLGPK
# UniProt Q9Y3I0: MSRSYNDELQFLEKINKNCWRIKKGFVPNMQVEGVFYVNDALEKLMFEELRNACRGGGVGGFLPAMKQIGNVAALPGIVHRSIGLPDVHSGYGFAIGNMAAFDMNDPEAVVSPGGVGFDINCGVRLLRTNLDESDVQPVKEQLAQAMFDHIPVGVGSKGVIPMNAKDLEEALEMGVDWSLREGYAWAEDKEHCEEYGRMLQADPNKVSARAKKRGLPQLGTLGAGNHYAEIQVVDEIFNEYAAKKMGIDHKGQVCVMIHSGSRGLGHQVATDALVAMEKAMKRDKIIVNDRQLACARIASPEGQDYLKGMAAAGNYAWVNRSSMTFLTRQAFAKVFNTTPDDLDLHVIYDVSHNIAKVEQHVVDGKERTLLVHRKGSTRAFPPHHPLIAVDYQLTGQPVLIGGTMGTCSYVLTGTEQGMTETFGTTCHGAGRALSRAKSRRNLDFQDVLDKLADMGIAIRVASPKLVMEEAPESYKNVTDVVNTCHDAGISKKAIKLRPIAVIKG
# UniProt Q14684: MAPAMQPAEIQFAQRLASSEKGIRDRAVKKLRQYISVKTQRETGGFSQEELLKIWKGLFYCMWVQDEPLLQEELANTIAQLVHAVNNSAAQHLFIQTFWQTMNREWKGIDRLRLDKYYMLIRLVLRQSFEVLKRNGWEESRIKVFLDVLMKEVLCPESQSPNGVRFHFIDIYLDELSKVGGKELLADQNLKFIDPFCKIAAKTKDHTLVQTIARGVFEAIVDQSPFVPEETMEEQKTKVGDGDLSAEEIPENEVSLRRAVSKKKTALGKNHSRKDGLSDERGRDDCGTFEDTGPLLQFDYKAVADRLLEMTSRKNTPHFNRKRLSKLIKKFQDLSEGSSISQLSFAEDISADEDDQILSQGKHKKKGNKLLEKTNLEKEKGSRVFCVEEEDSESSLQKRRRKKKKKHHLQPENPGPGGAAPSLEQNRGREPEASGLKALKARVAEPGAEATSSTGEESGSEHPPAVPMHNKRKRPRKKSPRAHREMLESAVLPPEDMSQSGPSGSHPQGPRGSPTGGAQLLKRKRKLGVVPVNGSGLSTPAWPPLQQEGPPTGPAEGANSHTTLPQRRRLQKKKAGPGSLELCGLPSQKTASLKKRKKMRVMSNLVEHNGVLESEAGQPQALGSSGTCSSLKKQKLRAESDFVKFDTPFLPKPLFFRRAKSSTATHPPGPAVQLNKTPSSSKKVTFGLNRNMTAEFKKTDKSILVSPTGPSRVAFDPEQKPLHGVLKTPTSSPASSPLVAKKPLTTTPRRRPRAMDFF
# UniProt Q15418, whole entry, looked up: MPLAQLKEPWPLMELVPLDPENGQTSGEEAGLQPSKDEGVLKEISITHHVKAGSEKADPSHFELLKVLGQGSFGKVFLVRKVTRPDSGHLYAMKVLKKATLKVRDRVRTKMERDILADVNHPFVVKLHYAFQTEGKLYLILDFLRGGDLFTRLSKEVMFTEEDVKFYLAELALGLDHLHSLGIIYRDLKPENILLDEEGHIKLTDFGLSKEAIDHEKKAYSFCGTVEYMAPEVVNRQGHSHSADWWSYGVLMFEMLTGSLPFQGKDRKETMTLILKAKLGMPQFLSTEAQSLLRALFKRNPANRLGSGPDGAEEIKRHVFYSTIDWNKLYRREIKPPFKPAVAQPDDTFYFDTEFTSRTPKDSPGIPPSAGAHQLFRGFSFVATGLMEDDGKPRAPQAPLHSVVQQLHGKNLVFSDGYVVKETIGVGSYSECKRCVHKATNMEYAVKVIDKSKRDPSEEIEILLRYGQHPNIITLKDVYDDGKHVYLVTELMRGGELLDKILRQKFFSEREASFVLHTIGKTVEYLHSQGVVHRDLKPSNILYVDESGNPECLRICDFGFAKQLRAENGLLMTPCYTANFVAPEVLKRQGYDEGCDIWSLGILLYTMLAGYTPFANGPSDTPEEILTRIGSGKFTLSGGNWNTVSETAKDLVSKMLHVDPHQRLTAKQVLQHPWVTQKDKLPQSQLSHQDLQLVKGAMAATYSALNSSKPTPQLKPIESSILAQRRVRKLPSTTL
# Compound: CC1Cc2ccccc2N1C(=O)C1CCCN(C1)C(=O)CCl (mixture of isomers) [TRIM25 ligand 11 (diastereomer mixture)]
# Assay: probe-labelled cysteine peptide fold change vs DMSO (competition) (log2 fold change); higher = less target engagement (more negative = stronger competition)
# Settings: THP-1, incubation time: 4 h
# 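Further: competitive chemoproteomic profiling in live THP-1 cells with an iodoacetamide desthiobiotin (IA-DTB) probe, comparing probe-labelled peptide intensities in compound-treated cells against DMSO-treated controls.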
Target,probe-labelled cysteine peptide fold change (10 µM),probe-labelled cysteine peptide fold change (50 µM)
RREB1_Q92766_805_NCIHHILK (UniProt Q92766),-0.119,-0.043
RXRA_P19793_195_CLAMGMK (UniProt P19793),-0.0191,-0.0716
RPS11_P62280_60_KCPFTGNVSIR (UniProt P62280),-0.143,-0.248
RPS12_P25398_69_LVEALCAEHQINLIK (UniProt P25398),0.00756,-0.0276
SAE1_Q9UBE0_295_YCFSEMAPVCAVVGGILAQEIVK (UniProt Q9UBE0),-0.545,-0.134
RSL1D1_O76021_96_SDSEDICLFTK (UniProt O76021),-0.0174,-0.141
RPS11_P62280_131_DVQIGDIVTVGECRPLSKTVR (UniProt P62280),-0.106,0.41
RTCB_Q9Y3I0_255_GQVCVMIHSGSR (UniProt Q9Y3I0),0.00368,0.0139
RPS17_P08708_35_VCEEIAIIPSK (UniProt P08708),-0.0889,-0.0597
RXRA_P19793_369_TELGCLR (UniProt P19793),-0.0466,0.0759
RPS2_P15880_222_KLLMMAGIDDCYTSAR (UniProt P15880),-0.59,-0.607
RRP1B_Q14684_155_EVLCPESQSPNGVR (UniProt Q14684),-0.371,-0.138
RPS12_P25398_106_VVGCSCVVVK (UniProt P25398),0.0604,0.111
RPS6KA1_Q15418-4_17_DLVPCPR (UniProt Q15418),-0.0198,-0.135
RXRA_P19793_404_VYASLEAYCK (UniProt P19793),-0.202,-0.0607

# Not a retest: entries from further up.
Target,probe-labelled cysteine peptide fold change (10 µM),probe-labelled cysteine peptide fold change (50 µM)
RPS11_P62280_131_DVQIGDIVTVGECRPLSKTVR (UniProt P62280),-0.106,0.41
RTCB_Q9Y3I0_255_GQVCVMIHSGSR (UniProt Q9Y3I0),0.00368,0.0139
RPS17_P08708_35_VCEEIAIIPSK (UniProt P08708),-0.0889,-0.0597

# — the supplement of paper PMC12067093, “Discovery and optimisation of a covalent ligand for TRIM25 and its application to targeted protein ubiquitination” (Chemical Science, 2025)
